Experimental data reported in paper PMC8126209, “Phytochemical Profile and In Vitro Antioxidant, Antimicrobial, Vital Physiological Enzymes Inhibitory and Cytotoxic Effects of Artemisia jordanica Leaves Essential Oil from Palestine” (Molecules, 2021).
Converted amounts (≈) assume the structure as drawn. Where two headings read alike, the source gives them in different places. Blank lines part the entries; values can stand above or below the molecule they belong to.

Key:
[1] = system: S. aureus; assay: Broth microdilution MIC, S. aureus; type: cell-based, Staphylococcus aureus (ATCC 25923)
Description: (§1) The antibacterial effect of (AJ) EO was determined utilizing several strains of bacteria, which were obtained from the American Type Culture Collection (ATCC): Pseudomonas aeruginosa (ATCC 9027), Escherichia coli (ATCC 25922), Klebsiella pneumonia (ATCC 13883), Proteus vulgaris (ATCC 8427), and Staphylococcus aureus (ATCC 25923), and from a diagnostically confirmed methicillin-resistant Staphylococcus aureus (MRSA). The antifungal activity of (AJ) EO was evaluated against the growth of Candida albicans (ATCC 90028). The antimicrobial activity of the (AJ) EO used in this study was estimated using the broth microdilution method. The (AJ) EO was dissolved in DMSO to a concentration of 200 µg/mL. The produced solution was serially micro-diluted (2-fold) 10 times in sterile Mueller–Hinton broth (Thermo Fisher Scientific, Waltham, MA, USA). The dilution processes were performed under aseptic conditions in 96-well plates. In the micro-wells that were assigned to evaluate the antibacterial activity of (AJ) EO, micro-well number 11 contained plant-free Mueller–Hinton broth, which was used as a positive control for microbial growth. Micro-well number 12 contained plant-free and microbial-free Mueller–Hinton broth, which was used as a negative control for microbial growth. Micro-wells numbered 1–11 were inoculated aseptically with the test microbes. The (AJ) EO antimicrobial activity was determined in triplicate. All the inoculated plates were incubated at 35 °C. Regarding C. albicans, the same method was used but using RPMI media (Thermo Fisher Scientific, Waltham, MA, USA) instead of Mueller–Hinton broth. The incubation period lasted for about 18–24 h for those plates inoculated with the test bacterial strains and for about 48 h for those plates inoculated with C. albicans. […]

[2] = system: E. coli; assay: Broth microdilution MIC, E. coli; type: cell-based, Escherichia coli (ATCC 25922); settings: Escherichia coli
Description: as §1, with “Micro-wells numbered 1–11 were inoculated aseptically with the test microbes.” left out, “triplicate.” for “triplicate. All the inoculated plates were incubated at 35 °C. Regarding C. albicans, the same method was used but using RPMI media (Thermo Fisher Scientific, Waltham, MA, USA) instead of Mueller–Hinton broth. The incubation period lasted for about 18–24 h for those plates inoculated with the test bacterial strains and for about 48 h for those plates inoculated with C. albicans.”

[3] = system: P. aeruginosa; assay: Broth microdilution MIC, P. aeruginosa; type: cell-based, Pseudomonas aeruginosa (ATCC 9027); settings: Pseudomonas aeruginosa
Description: as §1, with “Micro-wells numbered 1–11 were inoculated aseptically with the test microbes.” left out, “triplicate.” for “triplicate. All the inoculated plates were incubated at 35 °C. Regarding C. albicans, the same method was used but using RPMI media (Thermo Fisher Scientific, Waltham, MA, USA) instead of Mueller–Hinton broth. The incubation period lasted for about 18–24 h for those plates inoculated with the test bacterial strains and for about 48 h for those plates inoculated with C. albicans.”

[4] = system: C. albicans; assay: Broth microdilution MIC, C. albicans; type: cell-based, Candida albicans (ATCC 90028); settings: RPMI media, 48 h
Description: as §1, with “Micro-wells numbered 1–11 were inoculated aseptically with the test microbes.” left out, “triplicate.” for “triplicate. All the inoculated plates were incubated at 35 °C. Regarding C. albicans, the same method was used but using RPMI media (Thermo Fisher Scientific, Waltham, MA, USA) instead of Mueller–Hinton broth. The incubation period lasted for about 18–24 h for those plates inoculated with the test bacterial strains and for about 48 h for those plates inoculated with C. albicans.”

[5] = system: MCF7; assay: MTS cytotoxicity assay, MCF7; type: cell-based; settings: Homo sapiens, 24 h, read-out: IC50 against MCF7
Description: The liver (Hep3B), breast (MCF-7), Human cervical (HeLa), and Colon (CACO-2) tumor cell lines were cultivated separately in RPMI-1640 media (Sigma, Norwich, UK), which was treated with 1% L-glutamine (Sigma, London, UK), 1% penicillin/streptomycin antibiotics (BI, New Delhi, India), and 10% fetal bovine serum. Cancer cells were grown at 37 °C in a humidified atmosphere with 5% CO2. Cells were seeded at 2.6 × 10^4 cells/well in a 96-well plate. […] Cell viability was evaluated by the CellTilter 96® Aqueous One Solution Cell Proliferation (MTS) Assay according to the manufacturer’s directions (Promega Corporation, Madison, WI, USA). At the end of the treatment, 20 μL of MTS solution per 100 μL of media was added to each well, and the solutions in the well plates were incubated at 37 °C for 2 h. The absorbance was measured at 490 nm.

[6] = Staphylococcus aureus, read-out: MIC

Compound: CC1(C)S[C@@H]2[C@H](NC(=O)[C@H](N)c3ccccc3)C(=O)N2[C@H]1C(=O)O [Ampicillin, ampicillin]
- MIC [1, 6]: 3.12 µg/mL (≈ 8.93 µM)
- MIC [2]: 3.12 µg/mL (≈ 8.93 µM)

Compound: O=C(O)c1cn(C2CC2)c2cc(N3CCNCC3)c(F)cc2c1=O [Ciprofloxacin, ciprofloxacin]
- MIC [1]: 0.78 µg/mL (≈ 2.35 µM)
- MIC [1, 6]: 0.78 µg/mL (≈ 2.35 µM)
- MIC [2]: 1.56 µg/mL (≈ 4.71 µM)
- MIC [3]: 3.12 µg/mL (≈ 9.42 µM)

- MIC ([4]; Candida albicans, read-out: MIC): 1.56 µg/mL (≈ 5.09 µM)
- MIC [4]: 1.56 µg/mL (≈ 5.09 µM)
Compound: OC(Cn1cncn1)(Cn1cncn1)c1ccc(F)cc1F [Fluconazole, fluconazole]

Compound: COc1cccc2c1C(=O)c1c(O)c3c(c(O)c1C2=O)C[C@@](O)(C(=O)CO)C[C@@H]3O[C@H]1C[C@H](N)[C@H](O)[C@H](C)O1 [doxorubicin]
- IC50 [5]: 0.43 ± 0.06 µg/mL (≈ 0.791 µM)
